Measurements from PubChem BioAssay AID1347426 (Functional Genomics Laboratory (NCATS/FGL), 2020).
Screen size: about 31,000 sequences; about 1,400 (4.5%) were called active.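 The calls were made as follows: active = median seed-adjusted z-score above 1 or below -1; inactive = the rest.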 The list shows a part of the results.

Test: Novel Modifiers of Survival Motor Neuron (SMN) Protein: Gene Identification via Genome-wide siRNA Screen;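 also: luminescence tracks full-length SMN protein made from the SMN2 reporter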
Settings: HEK293T SMN2-luciferase reporter, siRNA knockdown, 72 h; actives lie on both sides
In short: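 siRNA screen, 10418 genes ×3 siRNAs; 1 pmol/well, lipid reverse transfection into HEK293T SMN2-luc reporter line. 72 h, 37 °C, 5% CO2; ONE-Glo readout. Data: neg-ctrl normalized, log10, MAD; hit = MAD >1.0 or < -1.0.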

| Sequence | median seed-adjusted z-score |
| --- | --- |
| CCCUCACCGUUUACAGCAATT against NR6A1 | inactive: -0.287 |
| GCUGCACGAUUUAUGGAAATT against GMIP | inactive: 0.0686 |
| CCAUCCACGUUGCUAAUAATT against DMBT1 | inactive: -0.131 |
| GUGCGAAUGUACAACAAGATT against HKDC1 | inactive: -0.119 |
| GGAUACCUCUGAACACCGATT against NUP85 | inactive: 0.948 |
| CUGACUUCCCAAACCCUUATT against MASP1 | inactive: 0.653 |
| GGAAAAACAUGAAGUUUAUTT against SULT2A1 | inactive: -0.123 |
| GACCUUAUAUGUGCAAGGATT against ZNF8 | inactive: 0.97 |
| AAGAUAUGCUGGUACAUCUTT against RAD51C | inactive: -0.0724 |
| GCAUAUGCGGUACUCAGCATT against DNAJB12 | inactive: 0 |
| GCAGCGAACUCAAGGAACATT against POLA2 | inactive: -0.114 |
| GCUGGAAGGUGAACCGUUATT against ADCYAP1R1 | inactive: 0.404 |
| GACUGAUGCUUUGACUGAATT against NPTX2 | inactive: 0.0558 |
| CAACAGCACCAGUUUGACATT against NAGLU | inactive: -0.526 |
| AAUGAGAGGUUGAUCUGUATT against ZBTB34 | inactive: 0.0298 |
| GGAAGAUUGUUGAUCGAAUTT against RCN1 | inactive: 0.236 |
| GGAAUUGGACUGAUCCUUUTT against GYS2 | inactive: 0.0101 |
| GCUUUUAUGAAGUCUUUAATT against SLC25A3 | inactive: -0.495 |
| CGCCCGCGAUUACUACCAUTT against HSPA12B | inactive: -0.141 |
| GCAUGAUCCUGUCAGUAAATT against RPA1 | inactive: -0.27 |
| CGUCAACGAUCGGAAGAAATT against TTLL9 | inactive: 0.0534 |
| AGAAGUACUCGGACAAGGATT against BAIAP2 | inactive: -0.0497 |

| Sequence | median seed-adjusted z-score |
| --- | --- |
| CUAAUGAGUUUGUCUAAUATT against PKDREJ | inactive: 0.376 |
| GGACGAAUCUUCUUUAAGATT against IMMP1L | inactive: -0.444 |
| AGAUUGUUCUCCUCUGAAATT against ABCG8 | inactive: -0.0233 |
| CAACACCGCCCACAACAAATT against TRIM25 | inactive: 0.859 |
| CUUUUGAACAGAUCGAUGATT against EXO1 | inactive: 0.547 |
| CGUCAAUUCCGGUACACUUTT against PIGM | active: 1.36 |
| GAAGAAUUCAAGACGGAGATT against GPR27 | inactive: -0.678 |
| GAAGGUGUUUUCGUAAAUATT against CYBRD1 | inactive: 0.623 |
| GGGUUUAACUGGGAACUCUTT against GALNT8 | inactive: -0.283 |
| CACCCGUUGUCUCACCAUUTT against DCHS1 | inactive: 0.565 |
| GAAGAAACCUUGACAAAAATT against KHDRBS3 | inactive: 0.0681 |
| AGUUCACCCAGUACGACAATT against IL4I1 | inactive: -0.441 |
| GGAGGAGAGUUACCUACAATT against PILRB | inactive: 0.0351 |
| CAACAGCACCACACGAAAATT against GGT1 | inactive: -0.0421 |
| CCGAUGUCAUUGACCUGUUTT against RIPK4 | inactive: 0.188 |
| CAAUCUCCGCAAAAAUGGATT against PCMT1 | inactive: 0.139 |
| AAAUGUGGAUUAUUCCUUUTT against KIRREL | inactive: -0.74 |
| GAAUUUACCUACCACAAAATT against RASA3 | inactive: 0.0056 |
| GGUCCUUUUUCUCCGCCUATT against BCL2L10 | inactive: 0.361 |
| CCCUGGUAUUGUCCGAAUUTT against USP15 | inactive: -0.405 |
| CUAUCACGACGAAAACGGATT against ZMYND8 | inactive: -0.065 |
| AGACCUUCGAUGUCAACGATT against SOX9 | inactive: 0.775 |

| Sequence | median seed-adjusted z-score |
| --- | --- |
| GAGUCUGUGGUGUACCUAATT against SALL4 | inactive: -0.344 |
| GAUCGUUUGAGAGAACAAATT against L3MBTL4 | inactive: -0.189 |
| CCAGCAAUCCUGACUUGUUTT against TGFBR2 | inactive: 0.8 |
| CCACGUGUUUCAAAGCAGATT against GPR172B | inactive: 0.184 |
| AGAGCAGUAUUGCAGUCAATT against APBB3 | inactive: -0.299 |
| CGUCGACCAUUCCCAUGAATT against BRUNOL4 | inactive: 0 |
| CCAGCAACAGUAUCGGGAATT against SLC7A4 | inactive: -0.102 |
| CAAGCAAGGGUGUGAGUUUTT against CXCR4 | inactive: -0.347 |
| GGCUUUUGAUAUUAUGAGATT against SMYD3 | inactive: 0.1 |
| CACGCAACUUGGAUCCGGATT against SLC39A5 | inactive: -0.311 |
| GAGUUAUCUUAGUCGGGAATT against MAP4K5 | inactive: -0.309 |
| ACAUAGAUGCUAUCUUUAATT against EIF4H | inactive: 0.0349 |
| CAGUUUCAACUUUAUCAGATT against RNF144B | inactive: 0.642 |
| GAACAAGUACGAGGAUGAATT against KRT79 | inactive: 0.338 |
| GCUCAAUACAGUGCACAAUTT against HIPK1 | inactive: 0.69 |
| GCAUGACUUUGUUCGACGATT against TAOK3 | inactive: -0.594 |
| CUAUGAAAUCGAAAUUGUATT against ZFYVE21 | inactive: -0.186 |
| GGAUACGGGACAAUGAGAATT against KCTD2 | inactive: 0.133 |
| GGAAUAUAAAGAUCGGGAUTT against MTMR14 | inactive: 0.131 |
| GGGUGAUCGAGGACCCAAATT against COL8A1 | inactive: -0.848 |
| GCACCUACAGUGUCUCAUUTT against GPX7 | inactive: -0.971 |
| CAUCCAUUGUGCACCGCUATT against EFEMP2 | inactive: -0.143 |

Reformatted in CSV form: entries from further up.
Sequence,median seed-adjusted z-score
GGAGGAGAGUUACCUACAATT against PILRB,inactive: 0.0351
CAACAGCACCACACGAAAATT against GGT1,inactive: -0.0421
CCGAUGUCAUUGACCUGUUTT against RIPK4,inactive: 0.188
CAAUCUCCGCAAAAAUGGATT against PCMT1,inactive: 0.139
AAAUGUGGAUUAUUCCUUUTT against KIRREL,inactive: -0.74
GAAUUUACCUACCACAAAATT against RASA3,inactive: 0.0056
GGUCCUUUUUCUCCGCCUATT against BCL2L10,inactive: 0.361
CCCUGGUAUUGUCCGAAUUTT against USP15,inactive: -0.405
CUAUCACGACGAAAACGGATT against ZMYND8,inactive: -0.065
AGACCUUCGAUGUCAACGATT against SOX9,inactive: 0.775
GAGUCUGUGGUGUACCUAATT against SALL4,inactive: -0.344
GAUCGUUUGAGAGAACAAATT against L3MBTL4,inactive: -0.189
CCAGCAAUCCUGACUUGUUTT against TGFBR2,inactive: 0.8
CCACGUGUUUCAAAGCAGATT against GPR172B,inactive: 0.184
AGAGCAGUAUUGCAGUCAATT against APBB3,inactive: -0.299
CGUCGACCAUUCCCAUGAATT against BRUNOL4,inactive: 0
CCAGCAACAGUAUCGGGAATT against SLC7A4,inactive: -0.102
CAAGCAAGGGUGUGAGUUUTT against CXCR4,inactive: -0.347
GGCUUUUGAUAUUAUGAGATT against SMYD3,inactive: 0.1
CACGCAACUUGGAUCCGGATT against SLC39A5,inactive: -0.311
GAGUUAUCUUAGUCGGGAATT against MAP4K5,inactive: -0.309
ACAUAGAUGCUAUCUUUAATT against EIF4H,inactive: 0.0349
CAGUUUCAACUUUAUCAGATT against RNF144B,inactive: 0.642
GAACAAGUACGAGGAUGAATT against KRT79,inactive: 0.338
GCUCAAUACAGUGCACAAUTT against HIPK1,inactive: 0.69
GCAUGACUUUGUUCGACGATT against TAOK3,inactive: -0.594
CUAUGAAAUCGAAAUUGUATT against ZFYVE21,inactive: -0.186
GGAUACGGGACAAUGAGAATT against KCTD2,inactive: 0.133
GGAAUAUAAAGAUCGGGAUTT against MTMR14,inactive: 0.131
GGGUGAUCGAGGACCCAAATT against COL8A1,inactive: -0.848

Random excerpt: 3 entries already listed, in no set order.

| Sequence | median seed-adjusted z-score |
| --- | --- |
| CCCUCACCGUUUACAGCAATT against NR6A1 | inactive: -0.287 |
| GAUCGUUUGAGAGAACAAATT against L3MBTL4 | inactive: -0.189 |
| AGACCUUCGAUGUCAACGATT against SOX9 | inactive: 0.775 |

Next results

| Sequence | median seed-adjusted z-score |
| --- | --- |
| CCGGAACUUUGACACGCUATT against ARVCF | inactive: 0.372 |
| GGACUUCACCAAGCAGAAATT against MCM5 | inactive: 0.126 |
| GGACAAUGAGUUGAGUAAUTT against TRMT2A | inactive: -0.588 |
| AGAUCGACCAGAACGUGGATT against APOA4 | inactive: 0.195 |
| GAUAUAUCGUUGUCAAGCATT against NCAM2 | inactive: 0.192 |
| GGACGGAUCUCAAUCGAAATT against CPO | inactive: 0.0875 |
| CGACACUUGAUAUGCUAAATT against FOXJ3 | inactive: -0.155 |
| GCGAGUGUCUUGAAGUAUATT against PLAA | inactive: -0.192 |
| GCCUAUUCAUCGGAAGGUATT against SENP2 | inactive: 0 |
| CGGUCCACGCAAUUCUUUATT against FIZ1 | inactive: 0.154 |
| GCCGGGUCUUUUCGACAUUTT against PAQR9 | inactive: 0.116 |
| GUAUGAGGCUUUCAAGGAUTT against XPR1 | inactive: -0.024 |
| AGAACCAGGCAGUAAAGAATT against SLC22A12 | inactive: -0.148 |
| GAUUGACCUCAGUCAUAUATT against PAN3 | inactive: 0.349 |
| CAAUGACCAGUACGAGAAATT against 9-Sep | inactive: -0.0175 |
| CGAUAUGUUCAUUAGAAUUTT against HSPA1B | inactive: 0.302 |
| GGUGGUGAAUCGUUAUCCATT against MARK1 | inactive: 0.341 |
| GCAGUUGGUUUUGCGAUUATT against ITGB1 | inactive: 0 |
| GCCCACGAGUUUUCAACAATT against ZBTB47 | inactive: 0 |
| CCUUCACUGUGCUUACGGATT against PDE1C | inactive: 0.157 |
| AGAUGAGAUCGACUUCUUATT against KRT3 | inactive: 0.399 |
| CCUAAGCCUUUGUAUCCCATT against KCTD6 | inactive: 0.124 |

| Sequence | median seed-adjusted z-score |
| --- | --- |
| GCAAGGCGAUUGAGAAAAATT against GNAO1 | inactive: 0.233 |
| GAAUUGUUUAUCAGGAAUATT against EXOSC6 | inactive: 0.354 |
| GAACAUUGUUUGUAAGGCUTT against SUOX | inactive: -0.0649 |
| GCCUGACAAUGUCCGAAUUTT against LRP2 | inactive: -0.512 |
| GGAAUCGGAUAUAACAUCATT against GBA | inactive: -0.492 |
| CAGCAGUUAUGGACCAGUUTT against AMD1 | inactive: -0.211 |
| GCAUCUGAAUGCAAGAAAATT against PIP3-E | inactive: 0.676 |
| AGAGUGGAUUUGUACCAAATT against RAB39B | inactive: 0.485 |
| CCUAAUUACUUGCAUAGAATT against PPP2R1B | inactive: -0.295 |
| GAUGUGAAGUUGGUACAAATT against CNOT6 | inactive: 0.146 |
| CCAACACUGACAUCCUCGATT against MEF2B | inactive: 0.263 |
| GGUACGAAUUUUGCGGUUATT against AP1G1 | inactive: 0.0802 |
| UCCUCACCGUGACCAAUAATT against MKL1 | inactive: -0.138 |
| GGGCCUACUUUACAUCACATT against TXNDC14 | active: -2.39 |
| GGGCCUUCAUGACAACUCATT against FURIN | inactive: 0.0975 |
| GCCUUAAAGACUUACCGAATT against USPL1 | active: -1.87 |
| GCAGAAAAGAACAACUUGUTT against RAB11B | inactive: -0.857 |
| GGAUGGUCAGCGACAGCUATT against ST6GALNAC4 | inactive: -0.39 |
| GACUAGGCCUUUCAACAGATT against ALPK3 | inactive: 0.365 |
